## Binding screen against folded nucleic acids

Source: the ROBIN nucleic acid binder screens (doi:10.1002/anie.202211358).

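Each compound is printed as two spots on a slide made to bind it covalently, so it has no test concentration; the read-out is fluorescence of the bound, labelled oligonucleotide. The data file lists only calls. An earlier report of the laboratory on the PreQ1, TPP and SAM-II riboswitches (doi:10.1038/s41467-019-09493-3) used 1 µM RNA for 2 h and required a mean Z-score above 3 (spot signal-to-noise against the whole library), a score well above that on a control array, and duplicate spots agreeing (coefficient of variation under 100); it then also set aside compounds that hit other targets, which this list keeps. The cut-offs behind this list may differ. A missing hit is not proof of no binding, and a hit is not a measured affinity.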 A compound is marked 1 if it was called a hit and 0 if it was screened but was not. The compounds are a random part of those screened.

Oligonucleotides screened, 5′ to 3′:
TPP: TPP riboswitch RNA three-way junction, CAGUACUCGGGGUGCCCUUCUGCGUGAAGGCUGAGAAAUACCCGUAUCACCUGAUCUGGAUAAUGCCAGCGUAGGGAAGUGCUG. About 160 hits among about 24,000 compounds.

Compound	TPP
CSc1ccc(CN(CCO)Cc2c(C)cc(C)c(CO)c2C)cc1	0
CC(NS(=O)(=O)c1ccc(N)cc1)c1ccccc1 (centres undefined)	0
COc1cccc(CCNCc2c(F)cccc2F)c1	0
Cc1nnc(SCc2nc(C(O)c3ccccc3)nn2CCO)s1 (centres undefined)	0
COCCc1ccc(OCc2ccc(-c3cnc(N)nc3)cc2)cc1	0
COc1ccc2c(c1)OCC(Cc1cc(N)ncn1)C2 (centres undefined)	0
OCCSc1nc2ccccc2n1CCOc1ccccc1	0
O=C(c1cc(=O)[nH]c2ccccc12)N(CCCO)Cc1ccc(Cl)cc1	0
CCC(CO)N(Cc1ccc(OC)c(COC)c1)Cc1ccco1 (centres undefined)	0
Nc1ncn([C@H]2C[C@H](O)[C@@H](CO)O2)c(=O)n1	0
COc1cccc(C(O)Cc2nc3ccccc3n2C)c1OC (centres undefined)	0
O=C(C1CC12CCNCC2)N1CCCN(CCCc2ccccc2)CC1 (centres undefined)	0
Cc1cc2c(c(=O)o1)C(c1ccc(Cl)cc1Cl)C(C#N)=C(N)O2 (centres undefined)	0
CCN1CCCC1CNC(=O)c1cc(S(N)(=O)=O)ccc1OC (centres undefined)	0
COc1ccc([C@@H]2C[C@H](c3ccc(Cl)cc3)n3nc(N)nc3N2)cc1	0
CCOc1ccc(NC(=O)N(O)C2(C#N)CCCCC2)cc1	0
CC(C)COC(=O)c1sc2nc(N3CCOCC3)c3c(c2c1N)CC(C)(C)OC3	0
COc1ccc2[nH]c(CNC(C)CN3CCN(C)CC3)nc2c1 (centres undefined)	0
CC(C)C[C@@H](N)C(=O)N(Cc1cnn(C)c1)C(C)C	0
CCOC(=O)c1ccc(NCc2ccncc2)cc1	0
O=C(CC1CCc2ccccc21)NCCNc1cccnc1 (centres undefined)	0
Cc1ncc2c(c1CNC(=O)CCc1n[nH]c3c1CCCC3)CCNC2	0
COc1ccc2[nH]c(C(=O)N3CCC4(CCCNC4)C3)c(C)c2c1 (centres undefined)	0
Cc1c(Cl)cccc1NC(=O)N1CCN(C(=O)c2nonc2N)CC1	0
CN(Cc1cn[nH]c1-c1ccc(F)cc1)C(=O)[C@H](N)Cc1ccccc1	0
CC(C)Cc1cc(-c2cn(CC3(CO)CCOCC3)nn2)n[nH]1	0
CCc1cc(C(C)NCc2c[nH]nc2-c2ccc(F)cc2)on1 (centres undefined)	0
Nc1ncc(S(=O)(=O)N2CCCCC2)cn1	0
C=CCNc1nnc(-c2ccccc2)s1	0
Cc1nc(Nc2nc3ccccc3o2)nc(C)c1C	0
CC(=O)C1=C(NCCc2c(C)[nH]c3ccccc23)CC(c2ccccc2)CC1=O (centres undefined)	0
COc1c2c(nc3occc13)C(CCC(C)(C)O)(OC)C(O)CC2 (centres undefined)	0
CCc1cc(C(=O)N2CCC3(CCCN(CCO)C3=O)C2)cc(=O)[nH]1 (centres undefined)	0
O=C(Nc1cccn2cnnc12)N(CC(O)c1ccccc1)C1CCCCC1 (centres undefined)	0
COc1ccccc1-n1cnc2cc(NCc3ccc(N(C)C)cc3)ccc21	0
COc1ccc(OC)c(NC(=O)CSc2nc3ccc(N)cc3s2)c1	0
Cc1ccc(N)c(-c2nnc(-c3ccncc3)o2)c1	0
CN(C)[C@@H]1C[C@@H](CO)N(C(=O)Nc2ccc(OC(F)(F)F)cc2)C1	0
COCC(=O)Nc1ccc(C)c(NC(=O)N(C)[C@H]2COC[C@@H]2O)c1	0
Fc1ccccc1-c1ccc(CNCCN2CCOCC2)o1	0
COc1ccccc1N(CC(O)CN1C(=O)NC(C)(C)C1=O)S(=O)(=O)c1ccccc1 (centres undefined)	0
Nc1ccc(Sc2ccc3ccccc3c2Cl)c(Cl)c1	1
Cc1cc(NCc2ccccn2)n2ncc(-c3ccc(Cl)cc3)c2n1	0
OC1(CN2CCN(c3ccc(Cl)cn3)CC2)CCCNC1 (centres undefined)	0
CC(C)[C@@H](O)C(=O)N1CCC2(CCC(=O)N(CCc3ccncc3)C2)CC1	0
O=C(Nc1ccc(Cl)cc1)N1CCOCC(O)C1 (centres undefined)	0
CCCc1ccc2c(N)c(C(=O)c3ccccc3)sc2n1	0
C=CCNc1nnc(COc2ccc(Br)cc2)s1	0
CN(Cc1nc(-c2cccnc2)no1)C(=O)CCc1n[nH]c(N)n1	0
CC(=O)c1cc2c(N)c(C(=O)c3ccc(Cl)cc3)sc2nc1C	0
CC(=O)c1ccc(OCC(O)CN2CCCC(C)C2)cc1 (centres undefined)	0

The first 4 entries again:

{"compound": "CSc1ccc(CN(CCO)Cc2c(C)cc(C)c(CO)c2C)cc1", "TPP": "0"}
{"compound": "CC(NS(=O)(=O)c1ccc(N)cc1)c1ccccc1", "stereo": "centres undefined", "TPP": "0"}
{"compound": "COc1cccc(CCNCc2c(F)cccc2F)c1", "TPP": "0"}
{"compound": "Cc1nnc(SCc2nc(C(O)c3ccccc3)nn2CCO)s1", "stereo": "centres undefined", "TPP": "0"}